Assay results taken from US9914710B2, “Bicyclic arylcarboxylic acid amides and their use as herbicides” (BAYER CROPSCIENCE AKTIENGESELLSCHAFT, priority 2014, dated 2018).
Some results were stated once for a whole list of compounds, not compound by compound.

Key:
Assay in all cases: Pre-emergence herbicidal action against harmful plants
Type in all cases: in vivo
Details in all cases: application rate 320 g/ha, scored visually after 3 weeks vs untreated controls
[1] = tested on: Polygonum convolvulus
[2] = tested on: Amaranthus retroflexus
[3] = tested on: Veronica persica
[4] = tested on: Viola tricolor
[5] = tested on: Stellaria media
[6] = tested on: Pharbitis purpureum
[7] = tested on: Matricaria inodora
[8] = tested on: Abutilon theophrasti
[9] = tested on: Setaria viridis

CCSc1c(Br)c(C(=O)Nc2nnnn2C)cc2c1CCC2 [1-78]
at least 80%: efficacy (herbicidal activity in percent) against Polygonum convolvulus [1] | efficacy (herbicidal activity in percent) against Amaranthus retroflexus [2] | efficacy (herbicidal activity in percent) against Veronica persica [3] | efficacy (herbicidal activity in percent) against Viola tricolor [4] | efficacy (herbicidal activity in percent) against Stellaria media [5] | efficacy (herbicidal activity in percent) against Pharbitis purpureum [6] | efficacy (herbicidal activity in percent) against Matricaria inodora [7] | efficacy (herbicidal activity in percent) against Abutilon theophrasti [8] | efficacy (herbicidal activity in percent) against Setaria viridis [9]

CSc1c(Cl)c(C(=O)Nc2nnnn2C)cc2c1CCO2 [1-69]
at least 80%: efficacy (herbicidal activity in percent) against Polygonum convolvulus [1] | efficacy (herbicidal activity in percent) against Amaranthus retroflexus [2] | efficacy (herbicidal activity in percent) against Veronica persica [3] | efficacy (herbicidal activity in percent) against Viola tricolor [4] | efficacy (herbicidal activity in percent) against Stellaria media [5] | efficacy (herbicidal activity in percent) against Pharbitis purpureum [6] | efficacy (herbicidal activity in percent) against Matricaria inodora [7] | efficacy (herbicidal activity in percent) against Abutilon theophrasti [8] | efficacy (herbicidal activity in percent) against Setaria viridis [9]

CCn1nnnc1NC(=O)c1cc2c(c(S(C)(=O)=O)c1Cl)CCC2 [1-26]
at least 80%: efficacy (herbicidal activity in percent) against Polygonum convolvulus [1] | efficacy (herbicidal activity in percent) against Amaranthus retroflexus [2] | efficacy (herbicidal activity in percent) against Veronica persica [3] | efficacy (herbicidal activity in percent) against Viola tricolor [4] | efficacy (herbicidal activity in percent) against Stellaria media [5] | efficacy (herbicidal activity in percent) against Pharbitis purpureum [6] | efficacy (herbicidal activity in percent) against Matricaria inodora [7] | efficacy (herbicidal activity in percent) against Abutilon theophrasti [8] | efficacy (herbicidal activity in percent) against Setaria viridis [9]

Cn1nnnc1NC(=O)c1cc2c(c([S+](C)[O-])c1Cl)CCCC2 (racemic) [1-52]
at least 80%: efficacy (herbicidal activity in percent) against Polygonum convolvulus [1] | efficacy (herbicidal activity in percent) against Amaranthus retroflexus [2] | efficacy (herbicidal activity in percent) against Veronica persica [3] | efficacy (herbicidal activity in percent) against Viola tricolor [4] | efficacy (herbicidal activity in percent) against Stellaria media [5] | efficacy (herbicidal activity in percent) against Pharbitis purpureum [6] | efficacy (herbicidal activity in percent) against Matricaria inodora [7] | efficacy (herbicidal activity in percent) against Abutilon theophrasti [8] | efficacy (herbicidal activity in percent) against Setaria viridis [9]

CCSc1c(Cl)c(C(=O)Nc2nnnn2CC)cc2c1CCC2 [1-27]
at least 80%: efficacy (herbicidal activity in percent) against Polygonum convolvulus [1] | efficacy (herbicidal activity in percent) against Amaranthus retroflexus [2] | efficacy (herbicidal activity in percent) against Veronica persica [3] | efficacy (herbicidal activity in percent) against Viola tricolor [4] | efficacy (herbicidal activity in percent) against Stellaria media [5] | efficacy (herbicidal activity in percent) against Pharbitis purpureum [6] | efficacy (herbicidal activity in percent) against Matricaria inodora [7] | efficacy (herbicidal activity in percent) against Abutilon theophrasti [8] | efficacy (herbicidal activity in percent) against Setaria viridis [9]

CCn1nnnc1NC(=O)c1cc2c(c([S+](C)[O-])c1Cl)CCC2 (racemic) [1-25]
at least 80%: efficacy (herbicidal activity in percent) against Polygonum convolvulus [1] | efficacy (herbicidal activity in percent) against Amaranthus retroflexus [2] | efficacy (herbicidal activity in percent) against Veronica persica [3] | efficacy (herbicidal activity in percent) against Viola tricolor [4] | efficacy (herbicidal activity in percent) against Stellaria media [5] | efficacy (herbicidal activity in percent) against Pharbitis purpureum [6] | efficacy (herbicidal activity in percent) against Matricaria inodora [7] | efficacy (herbicidal activity in percent) against Abutilon theophrasti [8] | efficacy (herbicidal activity in percent) against Setaria viridis [9]

Cn1nnnc1NC(=O)c1cc2c(c(S(C)(=O)=O)c1Br)CCC2 [1-77]
at least 80%: efficacy (herbicidal activity in percent) against Polygonum convolvulus [1] | efficacy (herbicidal activity in percent) against Amaranthus retroflexus [2] | efficacy (herbicidal activity in percent) against Veronica persica [3] | efficacy (herbicidal activity in percent) against Viola tricolor [4] | efficacy (herbicidal activity in percent) against Stellaria media [5] | efficacy (herbicidal activity in percent) against Pharbitis purpureum [6] | efficacy (herbicidal activity in percent) against Matricaria inodora [7] | efficacy (herbicidal activity in percent) against Abutilon theophrasti [8] | efficacy (herbicidal activity in percent) against Setaria viridis [9]

CSc1c(Br)c(C(=O)Nc2nnnn2C)cc2c1CCC2 [1-75]
at least 80%: efficacy (herbicidal activity in percent) against Polygonum convolvulus [1] | efficacy (herbicidal activity in percent) against Amaranthus retroflexus [2] | efficacy (herbicidal activity in percent) against Veronica persica [3] | efficacy (herbicidal activity in percent) against Viola tricolor [4] | efficacy (herbicidal activity in percent) against Stellaria media [5] | efficacy (herbicidal activity in percent) against Pharbitis purpureum [6] | efficacy (herbicidal activity in percent) against Matricaria inodora [7] | efficacy (herbicidal activity in percent) against Abutilon theophrasti [8] | efficacy (herbicidal activity in percent) against Setaria viridis [9]

Cn1nnnc1NC(=O)c1cc2c(c(S(C)(=O)=O)c1Cl)CCC2 [1-20]
at least 80%: efficacy (herbicidal activity in percent) against Polygonum convolvulus [1] | efficacy (herbicidal activity in percent) against Amaranthus retroflexus [2] | efficacy (herbicidal activity in percent) against Veronica persica [3] | efficacy (herbicidal activity in percent) against Viola tricolor [4] | efficacy (herbicidal activity in percent) against Stellaria media [5] | efficacy (herbicidal activity in percent) against Pharbitis purpureum [6] | efficacy (herbicidal activity in percent) against Matricaria inodora [7] | efficacy (herbicidal activity in percent) against Abutilon theophrasti [8] | efficacy (herbicidal activity in percent) against Setaria viridis [9]

CCS(=O)(=O)c1c(Cl)c(C(=O)Nc2nnnn2C)cc2c1CCC2 [1-23]
at least 80%: efficacy (herbicidal activity in percent) against Polygonum convolvulus [1] | efficacy (herbicidal activity in percent) against Amaranthus retroflexus [2] | efficacy (herbicidal activity in percent) against Veronica persica [3] | efficacy (herbicidal activity in percent) against Viola tricolor [4] | efficacy (herbicidal activity in percent) against Stellaria media [5] | efficacy (herbicidal activity in percent) against Pharbitis purpureum [6] | efficacy (herbicidal activity in percent) against Matricaria inodora [7] | efficacy (herbicidal activity in percent) against Abutilon theophrasti [8] | efficacy (herbicidal activity in percent) against Setaria viridis [9]
